Results from publication PMC9880023.

Key:
[1] = target: HA-NRX1βS4(−)ΔHRD, expressed in cultured rat hippocampal neurons; experiment: protein-clustering assay with protein-coated beads on neurons; cis pair co-expressed in the same axon; co-accumulation at NLGN1-Fc-coated beads, surface immunostaining
[2] = target: HA-NRX1βS4(−), expressed in cultured rat hippocampal neurons; experiment: as above

| binding [1] | binding [2] | Binder |
| --- | --- | --- |
| no binding | binds | untagged full-length SorCS1b, expressed in cultured rat hippocampal neurons (SorCS1b-IRES-GFP) (receptor, UniProt Q9JLC4 34-1167) SLSCCPPQHPSSTPRRTLTPRGFPHPGPLGRAPATPPPLFMRPLFAVAPGDRALFLERAGGSRVSVATAARSGRRRRSGTEPEKIEPGEGASRSRRDMLKDGGQQGLGTGARDPGKATRFRMEELRLTSTTFALTGDSAHNQAMVHWSGHNSSVILILTKLYDYNLGSITESSLWRSTDYGTTYEKLNDKVGLKTILSYLYVCPTNKCKIMLLTDPEIESSLLISSDEGATYQKYRLNFYLQSLLFHPKQEDWILAYSQDQKLYSSAEFGRRWQLIQESVVPNRFYWSVMGSSKEPDLVHLEARTVDGHSIYLTCRMQNCTEANRNKPFPGYIDPDSLIVQDDYVFVQLTSGGRPHYYVSYRRSPFAQMKLPKYALPKDMHVISTDENQVFAAVQEWNQNDTYNLYISDTRGVYFTLALENVRSSRGPEGNVMIDLYEVAGIKGMFLANKKIDNQVKTFITYNKGRDWRLLQAPDADLRGDPVHCLLPYCSLHLHLKVSENPYTSGIIASRDTAPSIIVASGNIGSELSDSDISMFVSSDAGNTWRQIFEEEHSILYLDQGGVLVAMKHTSLPIRHLWLSFDEGRSWSKYSFTSIPLFVDGVLGEPGEETLIMTVFGHFSHRSEWQLVKVDYKSIFDRRCAEEDYRPWQLHSQGEACIMGAKRIYKKRKSERKCMQKYAGAMESEPCVCTEADFDCDYGYERHSNGQCLPAFWFNPSSLSKDCSLGQSYLNSAGYRKVVSNNCTDGVREQYTAKPQKCPGKAPRGLRIVTADGKLTAEQGHNVTLMVQLEEGDVQRTLIQVDFGDGIAVSYVNLSSMEDGIKHVYQNVGIFRVTVQVDNSLGSDSAVLYLHVTCPLEHVHLSLPFVTTKNKEVNATAVLWPSQVGTLTYVWWYGNNTEPLITLEGSISFKFTSEGMNTITVQVSAGNAILQDTKTIAVYEEFRSLRLAFSPNLDDYNPDIPEWRRDISRVIKKSLVEATGIPSQHILVAVLPGLPTAAELFVLPYQDGTRENKRSPEDLEQISEVLIHKLNQNLVHFELKPGVQVLVHAAHLTAAPLVDLTPTHSGSAMLMLLSVVFVGLAVFVIYKFKRRVALPSPPSPSAQPGDSSLRLQRPRPATPPSSPKRGSAGAQFAI |
|  | no binding | untagged SorCS1bΔVPS10, expressed in cultured rat hippocampal neurons (SorCS1bΔVPS10-IRES-GFP) (receptor, UniProt Q9JLC4) SLSCCPPQHPSSTPRRTLTPRGFPHPGPLGRAPATPPPLFMRPLFAVAPGDRALFLERAGGSRVSVATAARSGRRRRSGTEPEKIEPGEGASRSRRDMLKDGGQQGLGTGARDPGKATRFRMEELRLTSTTFALTGDSAHNQAMVHWSGHNSSVILILTKLYRGLRIVTADGKLTAEQGHNVTLMVQLEEGDVQRTLIQVDFGDGIAVSYVNLSSMEDGIKHVYQNVGIFRVTVQVDNSLGSDSAVLYLHVTCPLEHVHLSLPFVTTKNKEVNATAVLWPSQVGTLTYVWWYGNNTEPLITLEGSISFKFTSEGMNTITVQVSAGNAILQDTKTIAVYEEFRSLRLAFSPNLDDYNPDIPEWRRDISRVIKKSLVEATGIPSQHILVAVLPGLPTAAELFVLPYQDGTRENKRSPEDLEQISEVLIHKLNQNLVHFELKPGVQVLVHAAHLTAAPLVDLTPTHSGSAMLMLLSVVFVGLAVFVIYKFKRRVALPSPPSPSAQPGDSSLRLQRPRPATPPSSPKRGSAGAQFAI |

Results are given in words; binding and its absence hold for the method and conditions named. For part of these data: A result given as binding can be weak or reduced; the word gives no strength. Where a sequence is shown, tags or fusion partners need not be part of it.
